Experimental findings from PubChem BioAssay AID445 (National Center for Advancing Translational Sciences (NCATS), 2006) are described below.

The nature of this assay: IkB Signaling. The note with it: ABC-DLBCL IkBa-CBG/CBR dual luciferase ratio (green luciferase fused to IkBa over red control in OCI-Ly3 lymphoma cells), 4 h. An outline of the steps:
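Curves were fitted separately to fusion (green), unfused (red) and ratio luminescence, then classed by r2, magnitude and activity. Cells: OCI-Ly3, 4 h compound plus doxycycline at 37C; 10 uM MG-132 defined full response.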

Setting [1] is: measured here: control luc red channel unless noted.
[2] abbreviates: measured here: IkB-luc green channel.
[3] abbreviates: measured here: control luc red channel.

“And” between values parts separate entries of the source, which are not always exact repeats. Equal values may be shown once. This is one part of the list. These are further read-outs of the screen, such as a control signal, another cell line or another target. No call is given for them. The list favours compounds with an active or inconclusive main result. Potencies come from curve fits of mixed quality, noted in brackets.

By AC50 is commonly meant the midpoint of the concentration-response curve, whichever way the signal moves. In the case of `O=C(NCCc1ccc(Cl)cc1)c1ccc2c(c1)N(Cc1cccc(Cl)c1)C(=O)c1ccccc1S2(=O)=O`, the AC50 under setting [1] is 3.16 µM [rising, partial curve, poor fit].
Turning to `c1ccc(C(Cc2nc(-c3ccncc3)no2)c2ccccc2)cc1`, the AC50 under setting [1] was 3.98 µM [falling, partial curve].
The same measure, in the same setting: the result for `CCCc1cc(N2CCN(c3ccc(OC)cc3)CC2)n2cnnc2n1` reads 12.6 µM [falling, partial curve, poor fit]; that for `COc1ccccc1-c1nc(SCC(=O)Nc2ccc(C)c(C)c2)n[nH]1`, 15.8 µM [falling, partial curve]; that for `CCOC(=O)c1c(-c2cccs2)csc1NC(=O)CSc1ncn[nH]1`, 12.6 µM [falling, partial curve].
In the case of `Cc1sc2ncn(CC(=O)N(C)c3cccc(C(F)(F)F)c3)c(=O)c2c1S(=O)(=O)N1CCN(c2ncccn2)CC1`, under setting [1], the AC50 is 0.00631 µM [rising, full curve, poor fit].
Same read-out and setting: in the case of `CCN(CC)C(=O)COc1ccc(-c2nnc(Nc3ccc(OC)c(C(=O)NC)c3)c3ccccc23)cc1` it was 15.8 µM [falling, partial curve]; in that of `CC(NC(=O)c1cccs1)C(c1cccs1)N1CCN(c2ccccc2)CC1` (stereo not given), 25.1 µM [falling, partial curve].
As for `COc1ccc(/C=C\C(=O)Nc2ccccc2C(=O)O)cc1OC`, the AC50 is 2.51 µM [rising, full curve, poor fit] under setting [2]; 2.51 µM [falling, full curve] and 398 nM [falling, full curve] under setting [3].
For `CCc1cccc(C)c1NC(=O)C(CC)Sc1nncn2c1cc1occc12` (stereo not given), the AC50 under setting [1] was 25.1 µM [falling, partial curve].
On the same count and under the same terms, in the case of `CCS(=O)(=O)N1CCc2cc(C(=O)Nc3cc(OC)c(Cl)cc3OC)ccc21` it was 25.1 µM [falling, single point].
On the same count and under the same terms, the result for `Cc1ccc(Nc2nc(C)c(NC(=O)c3ccc(C)cc3)c(Nc3ccc(C)cc3)n2)cc1` reads 10 µM [falling, partial curve]; that for `COc1ccc(NC(=O)c2oc3ccccc3c2NC(=O)COc2ccc(F)cc2)c(OC)c1`, 3.98 µM [rising, partial curve]; that for `CCCNc1nc2c(c(=O)n(C)c(=O)n2C)n1CC(O)COc1ccccc1` (stereo not given), 39.8 µM [falling, partial curve].
For `Cc1ccc(NC(=O)Cn2cc(C(=O)C3CCCCC3)c3ccccc32)c(C)c1`, the AC50 under setting [1] is 7.94 µM [falling, full curve].
On the same count and under the same terms, in the case of `Cn1c(=O)n(C)c2cc(NS(=O)(=O)c3ccc(C(C)(C)C)cc3)c(NCc3ccccc3)cc21` it was 10 µM [falling, partial curve].
The same measure, in the same setting: the result for `Cc1cccc(C(=O)Nc2nnc(S(=O)(=O)N3CCCc4ccccc43)s2)c1` reads 10 µM [falling, partial curve]; that for `Fc1ccc(N2CCN(C(c3cccs3)c3nnnn3C3CCCC3)CC2)cc1` (stereo not given), 15.8 µM [falling, partial curve].
For `Cc1ccc(-c2nnc(Nc3cccc(Br)c3)c3ccccc23)cc1S(=O)(=O)NCC1CCCO1` (stereo not given), under setting [1], the concentration at half-maximal activity (AC50) was 1.26 µM [falling, partial curve].
Still for that read-out and setting: in the case of `CCC(C(=O)Nc1cccc(C#N)c1)n1nc(-c2ccccc2)ccc1=O` (stereo not given) it was 31.6 µM [falling, single point].
Same read-out and setting: in the case of `O=C(c1ccc2c(c1)N(Cc1ccc(Cl)cc1)C(=O)c1ccccc1S2(=O)=O)N1CCc2ccccc21` it was 20 µM [falling, partial curve, poor fit]; in that of `COc1ccc(-c2cc(C(=O)N3CCCc4ccccc43)no2)cc1`, 12.6 µM [falling, partial curve]; in that of `CCOc1ccc(C2C(=O)N(C3CCCCCC3)CC(=O)N2CCc2ccc(Cl)cc2)cc1OC` (stereo not given), 39.8 µM [falling, partial curve].
As to `Cc1cccc(CN2C(=O)c3ccccc3Sc3ccc(C(=O)NCc4cccs4)cc32)c1`, the AC50 under setting [1] was 7.94 µM [falling, full curve].
In the case of `COc1ccc(-c2noc(CN(C)S(=O)(=O)c3ccc(Cl)cc3)n2)cc1OC`, the AC50 under setting [1] is 15.8 µM [falling, partial curve].
Still for that read-out and setting: the result for `CCOC(=O)c1c(C)n(-c2ccccc2)c2ccc(OC(=O)c3cc(OC)cc(OC)c3)cc12` reads 20 µM [rising, partial curve]; that for `CCc1ccc(NC(=O)c2cc(C)nn2-c2ccccc2)cc1`, 20 µM [falling, partial curve].
For the compound `COc1cc2oc(-c3ccccc3)cc(=O)c2cc1O`, the concentration at half-maximal activity (AC50) reads like this: under setting [2], 5.01 µM [rising, single point]; under setting [3], 6.31 µM [rising, single point].
`CCOC(=O)c1c(NC(=O)c2cc3ccccc3c(=O)o2)sc2c1CCC(C(C)(C)C)C2` (stereo not given): the AC50 under setting [1] was 2.51 µM [falling, full curve].
On the same count and under the same terms, in the case of `O=c1c2ccccc2nc(N2CCN(c3cccc(Cl)c3)CC2)n1-c1ccccc1` it was 31.6 µM [falling, single point].
The same measure, in the same setting: the result for `Cc1c(CC(C)(C)C(=O)O)n(Cc2ccc(Cl)cc2)c2ccc(F)cc12` reads 31.6 µM [falling, partial curve].
The same measure, in the same setting: in the case of `COC(=O)c1cccc(CN2C(=O)SC(Nc3ccc(Cl)cc3)C2=O)c1` (stereo not given) it was 20 µM [falling, partial curve]; in that of `COc1ccc(Nc2c3c(nc4nncn24)CCC3)cc1Cl`, 25.1 µM [falling, single point].
As for `O=C(Nc1ccccc1C(F)(F)F)N1CCC2(CC1)Oc1ccccc1C(=O)N2Cc1ccccc1F`, the AC50 under setting [1] is 15.8 µM [falling, partial curve].
On to `CCCCOc1ccccc1NC(=O)CSc1nnnn1C(C)(C)C`, for which the AC50 under setting [1] was 12.6 µM [falling, partial curve].
Still for that read-out and setting: in the case of `CCCc1cc(=O)[nH]c(Nc2ccc(C)c(O)c2)n1` it was 0.00501 µM [rising, full curve]; in that of `CCCCOc1ccc(C(=O)Nc2nc3c(s2)CC(C)CC3)cc1` (stereo not given), 6.31 µM [falling, partial curve]; in that of `COCCNC(=O)c1ccc2c(c1)N(Cc1c(F)cccc1Cl)C(=O)c1ccccc1S2`, 15.8 µM [falling, partial curve].
On to `CCc1ccc(N2C(=O)N(CC(=O)C(C)(C)C)c3ccccc3S2(=O)=O)cc1`, for which the AC50 under setting [1] was 3.16 µM [falling, single point].
Still for that read-out and setting: the result for `Nc1c(NCc2ccccc2)c2ccccc2oc1=O` reads 20 µM [falling, single point]; that for `COc1ccc(CCNC(=O)Cn2nc(C)c3c(C)n(-c4ccc(C)cc4)nc3c2=O)c(OC)c1`, 6.31 µM [falling, partial curve]; that for `CC(=O)c1cc2c(cc1NC(=O)CCc1ccccc1)OCO2`, 20 µM [falling, single point].
On the same count and under the same terms, the result for `CCn1c(=O)cc(SCC(=O)N2CCN(c3ccccc3OC)CC2)c2ccccc21` reads 15.8 µM [falling, partial curve].
Still for that read-out and setting: the result for `CCC(c1nnnn1Cc1ccco1)N(Cc1cc2cc(OC)ccc2[nH]c1=O)C1CCCCC1` (stereo not given) reads 31.6 µM [falling, single point].
Regarding `COc1cc(NC(=O)Cn2c(=O)nc(-c3ccccc3F)c3cc(Cl)ccc32)cc(OC)c1`, the AC50 under setting [1] is 31.6 µM [falling, single point].
Still for that read-out and setting: in the case of `COC(=O)c1ccccc1NC(=O)Cn1nc(C(F)(F)F)c2c1CCCC2` it was 39.8 µM [falling, single point]; in that of `CC(C)c1nc2ccc(C(=O)NCCCN3CCN(c4ccc(F)cc4)CC3)cc2o1`, 1.26 µM [falling, full curve]; in that of `COc1cccc(-n2c(-c3ccc(C)cc3)cc3c2CC(C)(C)CC3=O)c1`, 20 µM [falling, partial curve].
As for `Cc1ccc2c(c1)CC(C)N2S(=O)(=O)c1nnc(NC(=O)CC(C)C)s1` (stereo not given), under setting [1], the AC50 was 2.51 µM [rising, partial curve, poor fit].
The same measure, in the same setting: the result for `COc1ccc(OC)c(NC(=O)CCc2c(C)nc3c(c(C)nn3C(C)(C)C)c2C)c1` reads 3.16 µM [falling, full curve].
Still for that read-out and setting: in the case of `CCCN(Cc1cc2cc(C)ccc2[nH]c1=O)S(C)(=O)=O` it was 2.51 µM [falling, full curve].
Take `CC(=O)c1sc(NC(=O)C2COc3ccccc3O2)nc1C` (stereo not given): under setting [1], the concentration at half-maximal activity (AC50) was 3.98 µM [falling, full curve].
On the same count and under the same terms, the result for `O=C(c1cccc2ccccc12)N1CCN(c2ccccc2F)CC1` reads 25.1 µM [falling, partial curve].
The same measure, in the same setting: in the case of `CC(C)c1ccc(-c2nnn(CCC(=O)O)n2)cc1` it was 6.31 µM [falling, partial curve]; in that of `Cc1ccc(N(CC(=O)Nc2cccc(C)c2)S(=O)(=O)c2cccc3nonc23)cc1`, 10 µM [falling, partial curve]; in that of `Cn1c(=O)c2ccccc2n(Cc2ccccc2F)c1=O`, 15.8 µM [falling, partial curve].
Still for that read-out and setting: the result for `CCOc1ccccc1C(=O)Nc1nnc(COC)s1` reads 3.16 µM [rising, partial curve, poor fit].
For `COc1ccc2c(C(=O)CN(C)C3CCCCC3)c[nH]c2c1`, the AC50 under setting [1] is 0.0794 µM [falling, full curve].
With `CCN(CC)S(=O)(=O)c1ccc2c(c1)c(=O)c(C(=O)NCc1ccccc1OC)cn2C`, the AC50 is 39.8 µM [rising, single point] under setting [2] and 39.8 µM [rising, partial curve] under setting [3].
`Cc1ccc(C(=O)N2CCc3cc(CNC(=O)c4ccnn4C)ccc32)cc1`: the AC50 under setting [1] is 6.31 µM [falling, single point].
Same read-out and setting: the result for `Cc1ccc(NS(=O)(=O)c2ccc3c(c2)NC(=O)CCS3)cc1F` reads 15.8 µM [falling, partial curve]; that for `O=C(NCc1ccc2c(c1)CCN2C(=O)c1ccccc1)c1ccc(Br)o1`, 20 µM [falling, partial curve].
